Assay: soluble on expression in E. coli; label from the status in PepcDB or PDB records

## LRLEPKLMGMLEKDSPEQRLFLRRDQFPEVLVDALLVTEDRDFYQHDGVSPLAIGRAMVVNLKAGRTVQGGSTLTQQLAKNIFLSSDRTLWRKLREAYMALIIDYRYSKDRILEAYLNEVYLGQSGADAIHGFGLASRLYFGQPLQELRIDQLALLVGMVKGPSYYNPMRYA
  soluble on expression in E. coli: not soluble

## MAGDPMRSDMIKKGDHQAPARSLLHATGALKSPTDMNKPFVAICNSYIDIVPGHVHLRELADIAKEAIREAGAIPFEFNTIGVDDGIAMGHIGMRYSLPSREIIADAAETVINAHWFDGVFYIPNCDKITPGMILAAMRTNVPAIFCSGGPMKAGLSAHGKALTLSSMFEAVGAFKEGSISKEEFLDMEQNACPTCGSCAGMFTANSMNCLMEVLGLALPYNGTALAVSDQRREMIRQAAFKLVENIKNDLKPRDIVTREAIDDAFALDMAMGGSTNTVLHTLAIANEAGIDYDLERINAIAKRTPYLSKIAPSSSYSMHDVHEAGGVPAIINELMKKDGTLHPDRITVTGKTLRENNEGKEIKNFDVIHPLDAPYDAQGGLSILFGNIAPKGAVIKVGGVDPSIKTFTGKAICFNSHDEAVEAIDNRTVRAGHVVVIRYEGPKGGPGMPEMLAPTSSIVGRGLGKDVALITDGRFSGATRGIAVGHISPEAASGGPIALIEDGDEITIDLTNRTLNVNQPEDVLARRRESLTPFKAKVKTGYLARYTALVTSANTGGVMQVPENLILEHHHHHH
  soluble on expression in E. coli: soluble

## MGHHHHHHSHMSPAFRAMDVEPRAKGVLLEPFVHQVGGHSCVLRFNETTLCKPLVPREHQFYETLPAEMRKFTPQYKGVS
  soluble on expression in E. coli: not soluble

## MIMTESREVIDLDPPAETSQEQEDLFIVKVEEEDCTWMQEYNPPTFETFYQRFRHFQYHEASGPREALSQLRVLCCEWLRPELHTKEQILELLVLEQFLTILPEEFQPWVREHHPESGEEAVAVIENIQRELEERRQQIVACPDVLPRKMATPGAVQESCSPHPLTVDTQPEQAPQKPRLLEENALPVLQVPSLPLKDSQELTASLLSTGSQKLVKIEEVADVAVSFILEEWGHLDQSQKSLYRDDRKENYGSITSMGYESRDNMELIVKQISDDSESHWVAPEHTERSVPQDPDFAEVSDLKGMVQRWQVNPTVGKSRQNPSQKRDLDAITDISPKQSTHGERGHRCSDCGKFFLQASNFIQHRRIHTGEKPFKCGECGKSYNQRVHLTQHQRVHTGEKPYKCQVCGKAFRVSSHLVQHHSVHSGERPYGCNECGKNFGRHSHLIEHLKRHFREKSQRCSDKRSKNTKLSVKKKISEYSEADMELSGKTQRNVSQVQDFGEGCEFQGKLDRKQGIPMKEILGQPSSKRMNYSEVPYVHKKSSTGERPHKCNECGKSFIQSAHLIQHQRIHTGEKPFRCEECGKSYNQRVHLTQHQRVHTGEKPYTCPLCGKAFRVRSHLVQHQSVHSGERPFKCNECGKGFGRRSHLAGHLRLHSREKSHQCRECGEIFFQYVSLIEHQVLHMGQKNEKNGICEEAYSWNLTVIEDKKIELQEQPYQCDICGKAFGYSSDLIQHYRTHTAEKPYQCDICRENVGQCSHTKQHQKIYSSTKSHQCHECGRGFTLKSHLNQHQRIHTGEKPFQCKECGMNFSWSCSLFKHLRSHERTDPINTLSVEGSLL
  soluble on expression in E. coli: soluble

## MNLERWTQAAREALAQAQVLAQRMKHQAIDLPHLWAVLLKDERSLAWRLLEKAGADPKALKELQERELARLPKVEGAEVGQYLTSRLSGALNRAEALMEELKDRYVAVDTLVLALAEATPGLPGLEALKGALKELRGGRTVQTEHAESTYNALEQYGIDLTRLAAEGKLDPVIGRDEEIRRVIQILLRRTKNNPVLIGEPGVGKTAIVEGLAQRIVKGDVPEGLKGKRIVSLQMGSLLAGAKYRGEFEERLKAVIQEVVQSQGEVILFIDELHTVVGAGKAEGAVDAGNMLKPALARGELRLIGATTLDEYREIEKDPALERRFQPVYVDEPTVEETISILRGLKEKYEVHHGVRISDSAIIAAATLSHRYITERRLPDKAIDLIDEAAARLRMALESAPEEIDALERKKLQLEIEREALKKEKDPDSQERLKAIEAEIAKLTEEIAKLRAEWEREREILRKLREAQHRLDEVRREIELAERQYDLNRAAELRYGELPKLEAEVEALSEKLRGARFVRLEVTEEDIAEIVSRWTGIPVSKLLEGEREKLLRLEEELHKRVVGQDEAIRAVADAIRRARAGLKDPNRPIGSFLFLGPTGVGKTELAKTLAATLFDTEEAMIRIDMTEYMEKHAVSRLIGAPPGYVGYEEGGQLTEAVRRRPYSVILFDEIEKAHPDVFNILLQILDDGRLTDSHGRTVDFRNTVIILTSNLGSPLILEGLQKGWPYERIRDEVFKVLQQHFRPEFLNRLDEIVVFRPLTKEQIRQIVEIQLSYLRARLAEKRISLELTEAAKDFLAERGYDPVFGARPLRRVIQRELETPLAQKILAGEVKEGDRVQVDVGPAGLVFAVPARVEA
  soluble on expression in E. coli: soluble

## MQKKYITAIIGTTALSALASTHAQAATTHTVKSGESVWSISHKYGISIAKLKSLNGLTSNLIFPNQVLKVSGSSSRATSTNSGTVYTVKAGDSLSSIAAKYGTTYQKIMQLNGLNNYLIFPGQKLKVSGKATSSSRAKASGSSGRTATYTVKYGDSLSAIASKYGTTYQKIMQLNGLTNFFIYPGQKLKVPGGSSSSSSSNNTRSNGGYYSPTFNHQNLYTWGQCTWHVFNRRAEIGKGISTYWWNANNWDNASAADGYTIDYRPTVGSIAQTDAGYYGHVAFVERVNSDGSILVSEMNWSAAPGNMTYRTIPAYQVRNYKFIHLEHHHHHH
  soluble on expression in E. coli: not soluble

## MRKKIIATVIGTSALAAVTWTNADAATTYKVKSGDSLWSIANKYNMSVAKLKSLNNLTSNVIFPNQSLKVSGSTSSSTSSNTSTGSTYTVKSGDTLSGIAAKYGTTYQKIMSLNGLSNFNIYPGQKLKVSGAASSSSSNTSGNTSSGSTTTYTVKSGDSLSAIAAKYGTTYQKIMSLNGLTNFNIYPGQKLKVSGKASTGGSGSSSTGSAGYKTPVFNHSNLYDWGQCTWHVFNKRAQIGKGISTYWWNANNWDTAAAADGYTIDRKATVGSILQSDMGYYGHVAFVESVNANGSITISEMNYSASPGIVTYRTIPASQVSSYVYIHLEHHHHHH
  soluble on expression in E. coli: not soluble

## MTESRISFEDVAVDFSWDQWQLLSPTQKSLYRDVMLENCSSLVFLGNQTTVWLLGFEHLRKSYTG
  soluble on expression in E. coli: not soluble
